Test system: anti-lysostaphin antibodies
Test: Binding of immunised mouse sera to lysostaphin-coated plates
Format: in vivo
Details: gamma-specific detection; sera of mice immunised s.c. with 10 μg recombinant or natural lysostaphin, no adjuvant

Lysostaphin: natural lysostaphin from S. staphylolyticus (Sigma Cat L7386), a 27 kD glycylglycine endopeptidase
Binding of anti-lysostaphin antibodies (immunised mouse sera) to the coating lysostaphin: markedly higher binding

Recombinant Lysostaphin: recombinant simulans lysostaphin produced in E. coli (Sigma-Aldrich)
Binding of anti-lysostaphin antibodies (immunised mouse sera) to the coating lysostaphin: stronger
